Earlier results in patent US20220267373A1, “SELF-ASSEMBLING PEPTIDES AND HYDROGELS” (UNIVERSITY OF VIRGINIA PATENT FOUNDATION, priority 2018, published 2022).
Some entries share one result that the patent states for a list of compounds. Some ranges recur; such a range may be that of the whole group of compounds.

Settings: literature comparison; cited from earlier work

Substance	storage moduli of other short self-assembling oligopeptides
KLVFF	50-1000 Pa
(FKFE)2	50-1000 Pa
